These are yes or no findings as the source states them, for the method shown. Some results given as binding are weak or reduced against the parent protein; the word gives no strength.

The chains behind the UniProt entries cited, without tags or fusion partners. Where a name states a change or a piece, a line headed by the entry shows the natural chain unless it says otherwise. A line that says so, or that is headed by a name, gives the form on record, which may keep a tag or linker. Residues count along the entry.
UniProt O75475: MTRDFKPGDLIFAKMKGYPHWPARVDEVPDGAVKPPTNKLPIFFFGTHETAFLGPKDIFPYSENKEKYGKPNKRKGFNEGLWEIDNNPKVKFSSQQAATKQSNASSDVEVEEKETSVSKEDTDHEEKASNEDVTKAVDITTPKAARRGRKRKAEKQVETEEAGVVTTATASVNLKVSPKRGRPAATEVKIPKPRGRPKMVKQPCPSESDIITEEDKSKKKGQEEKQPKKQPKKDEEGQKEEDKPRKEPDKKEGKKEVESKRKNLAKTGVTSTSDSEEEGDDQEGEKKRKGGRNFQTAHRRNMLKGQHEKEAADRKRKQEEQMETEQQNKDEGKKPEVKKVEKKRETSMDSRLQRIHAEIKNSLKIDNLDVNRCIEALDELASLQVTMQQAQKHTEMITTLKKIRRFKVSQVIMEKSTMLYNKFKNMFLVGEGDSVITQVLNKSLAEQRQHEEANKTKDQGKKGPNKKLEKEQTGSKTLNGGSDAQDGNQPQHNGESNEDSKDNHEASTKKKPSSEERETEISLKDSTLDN
Flag-LEDGF/p75_(dDNA) (O75475, form named): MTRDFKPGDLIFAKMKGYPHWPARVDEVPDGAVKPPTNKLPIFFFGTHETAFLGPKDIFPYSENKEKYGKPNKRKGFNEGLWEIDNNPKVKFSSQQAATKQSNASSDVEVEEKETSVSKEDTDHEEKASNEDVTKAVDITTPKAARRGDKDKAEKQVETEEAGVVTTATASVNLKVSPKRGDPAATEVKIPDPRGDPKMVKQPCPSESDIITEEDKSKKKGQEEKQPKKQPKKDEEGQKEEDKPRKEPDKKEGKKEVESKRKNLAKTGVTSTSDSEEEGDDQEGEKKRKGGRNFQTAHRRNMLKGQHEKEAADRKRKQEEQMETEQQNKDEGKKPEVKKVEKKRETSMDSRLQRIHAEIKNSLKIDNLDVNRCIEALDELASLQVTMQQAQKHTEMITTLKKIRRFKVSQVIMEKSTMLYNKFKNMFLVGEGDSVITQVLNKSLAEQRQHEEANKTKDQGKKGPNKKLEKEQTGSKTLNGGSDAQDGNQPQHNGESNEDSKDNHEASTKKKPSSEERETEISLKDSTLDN
UniProt Q03164, residues 1-160: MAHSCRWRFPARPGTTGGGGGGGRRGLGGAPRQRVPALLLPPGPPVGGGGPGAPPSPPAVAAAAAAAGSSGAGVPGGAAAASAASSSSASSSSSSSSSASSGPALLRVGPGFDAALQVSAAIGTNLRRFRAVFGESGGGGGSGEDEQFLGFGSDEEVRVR

In assay [1] the target is T1, JPO2 (UniProt Q96GN5).
T1 sequence: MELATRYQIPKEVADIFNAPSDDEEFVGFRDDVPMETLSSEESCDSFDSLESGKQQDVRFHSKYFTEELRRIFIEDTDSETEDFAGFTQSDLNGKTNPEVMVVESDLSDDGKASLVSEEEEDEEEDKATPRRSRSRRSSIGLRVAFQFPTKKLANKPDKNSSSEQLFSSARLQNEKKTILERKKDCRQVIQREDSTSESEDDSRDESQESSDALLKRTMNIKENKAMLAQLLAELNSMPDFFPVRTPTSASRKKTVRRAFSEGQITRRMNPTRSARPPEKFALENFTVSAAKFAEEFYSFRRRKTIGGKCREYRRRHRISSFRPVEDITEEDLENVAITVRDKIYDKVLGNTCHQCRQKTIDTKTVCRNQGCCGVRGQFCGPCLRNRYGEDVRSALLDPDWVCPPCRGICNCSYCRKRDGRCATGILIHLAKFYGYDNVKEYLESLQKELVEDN
Briefly: AlphaScreen or HTRF; LEDGF/p75 with JPO2, DNA present (Supporting Figure S3); format not given. Background: In Alpha technology, singlet oxygen from a donor bead excites a nearby acceptor bead.

Assay [2] has as its target T1, JPO2. Briefly: AlphaScreen or HTRF; LEDGF/p75 with JPO2 in the absence of DNA (Supporting Figure S3); how the DNA was removed is not given.
The next assay deals with GST-LEDGF/p75 (UniProt O75475). Briefly: condition: only with 0.13 U/well micrococcal nuclease; AlphaScreen or HTRF; direct titration with 0.13 U/well micrococcal nuclease (and 5 mM CaCl2) in the AlphaScreen buffer to digest the remaining DNA; both purified.
Assay [3] has as its target MLL1_(1–160)-GST (UniProt Q03164). The assay is described as above.
Assay [4] has the same target. Nature of the assay: AlphaScreen or HTRF; direct titration or cross-titration of two differently tagged proteins at nanomolar concentrations (one partner fixed at 100-350 nM); no nuclease; protein batches held DNA at 2 µg/mL or lower; both purified.
Another assay concerns the target Flag-LEDGF/p75 WT (UniProt O75475). The description is as above.

Regarding “Flag-LEDGF/p75 WT (from UniProt O75475 1-530)”, the binding entry with JPO2 [1] was “binds”; in the assay with JPO2 [2], “no binding (condition: in the absence of DNA)”; with GST-LEDGF/p75, “no binding”; with MLL1_(1–160)-GST [3] it was “no binding”.
As to “Flag-LEDGF/p75_(dDNA) (from UniProt O75475 1-530)”, the binding entry in the assay with JPO2 [1] and with MLL1_(1–160)-GST [4] was “no binding” each time.
Turning to “His6-LEDGF_(345–530) (from UniProt O75475 345-530) (domain or fragment)”, the binding entry with Flag-LEDGF/p75 WT is given as “binds weakly”.

Source of the values: article PMC10854676.
